Experimental data published in article PMC12755392, “p62 sorts Lupus La and selected microRNAs into breast cancer-derived exosomes”.
These are yes or no findings as the source states them, for the method shown. For part of these data: Binding seen in cells or lysates may run through a third protein. Some binding calls cover weakened binding; strength is not graded here. For part of these data: Where a sequence is shown, tags or fusion partners need not be part of it.

How the values were obtained:
[1] = target: T1, recombinant La-Nluc-FLAG-His6 (human) (UniProt P05455); experiment: pull-down; anti-DYKDDDK Fab-Trap agarose loaded with La-Nluc-FLAG-His6 or 3xFLAG peptide (control), washed with TBS, incubated with His6-MBP-p62 1 h at room temperature; immunoblot; both purified
T1 sequence: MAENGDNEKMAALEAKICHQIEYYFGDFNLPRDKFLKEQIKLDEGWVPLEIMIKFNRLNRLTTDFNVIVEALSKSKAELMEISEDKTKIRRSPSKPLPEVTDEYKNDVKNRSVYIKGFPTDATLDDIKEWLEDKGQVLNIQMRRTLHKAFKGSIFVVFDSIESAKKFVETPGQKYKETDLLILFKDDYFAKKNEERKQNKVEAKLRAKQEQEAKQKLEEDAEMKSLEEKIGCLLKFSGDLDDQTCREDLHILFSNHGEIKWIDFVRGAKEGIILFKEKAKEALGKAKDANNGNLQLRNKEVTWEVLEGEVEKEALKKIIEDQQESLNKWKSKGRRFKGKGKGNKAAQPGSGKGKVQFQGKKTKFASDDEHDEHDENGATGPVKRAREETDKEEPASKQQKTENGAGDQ

[2] = target: T2, Lupus La protein (human (endogenous in MDA-MB-231)) (UniProt P05455); experiment: co-IP; exosomes immunoisolated from MDA-MB-231 HA-CD63-mEGFP^ECL1 cells with GFP-Trap beads, lysed in IP buffer; 5 ug mouse anti-La (OTI1E11) or IgG isotype control, Protein A/G agarose, overnight, 4 C; immunoblot
T2 sequence: T1 sequence

[3] = target: T2, Lupus La protein (human (endogenous in MDA-MB-231)); experiment: co-IP; MDA-MB-231 WT lysate in IP buffer (20 mM HEPES pH 7.4, 100 mM KCl, 5 mM MgCl2, 1% TX-100), 5 ug mouse anti-La (OTI1E11) or IgG isotype control, Protein A/G agarose, overnight, 4 C; immunoblot

**Q.** Which binding [1] does the source give for “recombinant His6-MBP-p62 (from UniProt Q13501 1-440)” here?
**A.** binds

**Q.** How did the binding [2] turn out when “selective autophagy receptor p62 (from UniProt Q13501 1-440)” was run?
**A.** binds

**Q.** What about the binding [3] of the same substance?
**A.** binds
